The list shows a part of the results.
Legend:
Assay in all cases: log2 fold change, soluble protein after heating vs DMSO (PISA); higher = thermal stabilisation; K562 cells, 10 uM, 30 min; active = over 0.2 and 3.5 SD of the protein, either way, in both replicates (recomputed)
[1] = compound: C1=CC=C(C=C1)[C@H](COC2=CC3=C(C=C2)NC(=O)N3)NC(=O)C4=CC=CN(C4=O)CC5=CC(=C(C=C5)F)F
Outline: (§1)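 Soluble protein was defined as the supernatant after 21,000xg for 90 min. It came from K562 cells at 2×10^6 cells/mL given 10 μM compound for 30 min, heated in aliquots for 3 min across 48°C-58°C, pooled, and extracted in PBS with 0.5% NP-40 at 4°C, and was quantified by TMTpro 16plex LC-MS/MS with equalised channel sums. Thermal stability against control samples, from duplicates, is reported as log2 fold change.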

The chains behind the UniProt entries cited, without tags or fusion partners. Where a name states a change or a piece, a line headed by the entry shows the natural chain unless it says otherwise.
UniProt Q6NT46: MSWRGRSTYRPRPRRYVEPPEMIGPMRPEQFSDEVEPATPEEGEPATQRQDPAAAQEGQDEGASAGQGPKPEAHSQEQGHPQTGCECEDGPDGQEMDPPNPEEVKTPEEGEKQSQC
UniProt P41250: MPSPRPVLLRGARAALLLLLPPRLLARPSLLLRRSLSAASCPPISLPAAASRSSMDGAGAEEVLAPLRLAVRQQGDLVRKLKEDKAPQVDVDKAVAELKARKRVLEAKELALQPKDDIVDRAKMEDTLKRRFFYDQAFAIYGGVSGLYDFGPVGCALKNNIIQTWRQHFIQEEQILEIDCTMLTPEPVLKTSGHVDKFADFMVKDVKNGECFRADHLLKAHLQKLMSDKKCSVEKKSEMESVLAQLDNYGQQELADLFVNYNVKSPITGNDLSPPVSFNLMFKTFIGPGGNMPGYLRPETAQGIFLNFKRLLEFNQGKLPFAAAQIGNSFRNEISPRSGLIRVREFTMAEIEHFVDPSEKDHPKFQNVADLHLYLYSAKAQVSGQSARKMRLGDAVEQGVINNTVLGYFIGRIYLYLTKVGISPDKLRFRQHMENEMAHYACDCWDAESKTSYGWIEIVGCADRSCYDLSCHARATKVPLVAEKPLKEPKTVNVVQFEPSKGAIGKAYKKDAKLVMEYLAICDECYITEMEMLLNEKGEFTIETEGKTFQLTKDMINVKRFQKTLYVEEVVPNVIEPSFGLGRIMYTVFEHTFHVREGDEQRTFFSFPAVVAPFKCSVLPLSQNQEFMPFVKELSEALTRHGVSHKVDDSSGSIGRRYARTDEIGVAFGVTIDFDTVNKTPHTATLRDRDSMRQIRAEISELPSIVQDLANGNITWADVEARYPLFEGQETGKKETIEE
UniProt Q9UJY4: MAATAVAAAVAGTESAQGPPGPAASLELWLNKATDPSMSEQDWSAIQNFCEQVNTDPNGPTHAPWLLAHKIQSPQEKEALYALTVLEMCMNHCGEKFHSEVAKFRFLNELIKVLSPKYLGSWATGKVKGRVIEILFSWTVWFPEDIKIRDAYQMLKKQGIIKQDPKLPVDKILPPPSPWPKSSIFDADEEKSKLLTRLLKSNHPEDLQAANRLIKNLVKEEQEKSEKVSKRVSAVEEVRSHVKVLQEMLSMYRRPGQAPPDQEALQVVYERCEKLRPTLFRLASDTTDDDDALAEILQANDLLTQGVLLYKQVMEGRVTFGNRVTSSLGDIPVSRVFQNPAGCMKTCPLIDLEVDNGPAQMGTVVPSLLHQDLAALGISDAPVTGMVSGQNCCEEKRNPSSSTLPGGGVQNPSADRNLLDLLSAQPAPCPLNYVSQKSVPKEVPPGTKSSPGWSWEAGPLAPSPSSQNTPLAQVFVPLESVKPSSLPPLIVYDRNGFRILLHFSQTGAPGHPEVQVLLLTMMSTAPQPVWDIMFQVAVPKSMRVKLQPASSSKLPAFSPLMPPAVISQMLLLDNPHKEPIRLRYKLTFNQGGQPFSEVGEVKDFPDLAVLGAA
UniProt Q92947: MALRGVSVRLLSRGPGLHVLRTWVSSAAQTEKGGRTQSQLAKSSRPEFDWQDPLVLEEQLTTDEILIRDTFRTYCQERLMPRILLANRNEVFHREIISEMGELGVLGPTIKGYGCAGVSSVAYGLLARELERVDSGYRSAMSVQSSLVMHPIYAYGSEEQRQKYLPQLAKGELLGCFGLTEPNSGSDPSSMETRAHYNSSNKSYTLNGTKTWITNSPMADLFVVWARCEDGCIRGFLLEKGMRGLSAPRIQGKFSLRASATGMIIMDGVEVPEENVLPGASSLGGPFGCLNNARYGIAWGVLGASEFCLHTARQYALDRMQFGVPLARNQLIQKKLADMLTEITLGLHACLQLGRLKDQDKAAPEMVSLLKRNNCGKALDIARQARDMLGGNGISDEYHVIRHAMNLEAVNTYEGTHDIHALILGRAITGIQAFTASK
UniProt Q16595: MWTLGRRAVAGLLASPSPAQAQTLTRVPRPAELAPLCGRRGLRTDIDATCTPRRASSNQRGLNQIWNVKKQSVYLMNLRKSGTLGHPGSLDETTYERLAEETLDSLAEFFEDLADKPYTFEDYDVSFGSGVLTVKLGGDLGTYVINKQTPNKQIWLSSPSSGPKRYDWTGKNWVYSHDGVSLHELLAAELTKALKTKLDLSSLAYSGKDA
UniProt P30047: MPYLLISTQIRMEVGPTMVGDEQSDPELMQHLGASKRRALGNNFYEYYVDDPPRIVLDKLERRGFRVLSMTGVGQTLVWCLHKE
UniProt Q96AE4: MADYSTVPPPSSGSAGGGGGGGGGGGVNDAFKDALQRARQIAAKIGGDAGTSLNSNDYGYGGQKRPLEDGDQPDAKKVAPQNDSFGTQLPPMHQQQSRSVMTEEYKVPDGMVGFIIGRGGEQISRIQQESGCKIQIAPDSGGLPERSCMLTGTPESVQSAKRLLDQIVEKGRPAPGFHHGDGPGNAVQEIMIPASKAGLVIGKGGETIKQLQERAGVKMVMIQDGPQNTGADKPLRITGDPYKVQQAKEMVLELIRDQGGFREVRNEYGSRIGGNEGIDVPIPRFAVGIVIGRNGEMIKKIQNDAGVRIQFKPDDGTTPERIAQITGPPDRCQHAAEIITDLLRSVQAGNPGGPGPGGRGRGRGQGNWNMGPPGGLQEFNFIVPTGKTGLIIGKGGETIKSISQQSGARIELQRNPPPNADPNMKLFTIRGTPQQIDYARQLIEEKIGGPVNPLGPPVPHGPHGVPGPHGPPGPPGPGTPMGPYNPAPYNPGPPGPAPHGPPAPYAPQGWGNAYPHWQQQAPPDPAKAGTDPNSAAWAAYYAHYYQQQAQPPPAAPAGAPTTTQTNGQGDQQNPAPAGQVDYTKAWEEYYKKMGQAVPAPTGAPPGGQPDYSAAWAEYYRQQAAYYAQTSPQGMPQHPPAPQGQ
UniProt Q96NB1: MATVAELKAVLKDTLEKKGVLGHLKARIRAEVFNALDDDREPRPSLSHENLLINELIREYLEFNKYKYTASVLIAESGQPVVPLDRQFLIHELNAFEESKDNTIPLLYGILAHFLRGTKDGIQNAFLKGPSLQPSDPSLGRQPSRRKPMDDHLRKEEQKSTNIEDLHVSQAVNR
UniProt Q5JV73, whole entry, looked up: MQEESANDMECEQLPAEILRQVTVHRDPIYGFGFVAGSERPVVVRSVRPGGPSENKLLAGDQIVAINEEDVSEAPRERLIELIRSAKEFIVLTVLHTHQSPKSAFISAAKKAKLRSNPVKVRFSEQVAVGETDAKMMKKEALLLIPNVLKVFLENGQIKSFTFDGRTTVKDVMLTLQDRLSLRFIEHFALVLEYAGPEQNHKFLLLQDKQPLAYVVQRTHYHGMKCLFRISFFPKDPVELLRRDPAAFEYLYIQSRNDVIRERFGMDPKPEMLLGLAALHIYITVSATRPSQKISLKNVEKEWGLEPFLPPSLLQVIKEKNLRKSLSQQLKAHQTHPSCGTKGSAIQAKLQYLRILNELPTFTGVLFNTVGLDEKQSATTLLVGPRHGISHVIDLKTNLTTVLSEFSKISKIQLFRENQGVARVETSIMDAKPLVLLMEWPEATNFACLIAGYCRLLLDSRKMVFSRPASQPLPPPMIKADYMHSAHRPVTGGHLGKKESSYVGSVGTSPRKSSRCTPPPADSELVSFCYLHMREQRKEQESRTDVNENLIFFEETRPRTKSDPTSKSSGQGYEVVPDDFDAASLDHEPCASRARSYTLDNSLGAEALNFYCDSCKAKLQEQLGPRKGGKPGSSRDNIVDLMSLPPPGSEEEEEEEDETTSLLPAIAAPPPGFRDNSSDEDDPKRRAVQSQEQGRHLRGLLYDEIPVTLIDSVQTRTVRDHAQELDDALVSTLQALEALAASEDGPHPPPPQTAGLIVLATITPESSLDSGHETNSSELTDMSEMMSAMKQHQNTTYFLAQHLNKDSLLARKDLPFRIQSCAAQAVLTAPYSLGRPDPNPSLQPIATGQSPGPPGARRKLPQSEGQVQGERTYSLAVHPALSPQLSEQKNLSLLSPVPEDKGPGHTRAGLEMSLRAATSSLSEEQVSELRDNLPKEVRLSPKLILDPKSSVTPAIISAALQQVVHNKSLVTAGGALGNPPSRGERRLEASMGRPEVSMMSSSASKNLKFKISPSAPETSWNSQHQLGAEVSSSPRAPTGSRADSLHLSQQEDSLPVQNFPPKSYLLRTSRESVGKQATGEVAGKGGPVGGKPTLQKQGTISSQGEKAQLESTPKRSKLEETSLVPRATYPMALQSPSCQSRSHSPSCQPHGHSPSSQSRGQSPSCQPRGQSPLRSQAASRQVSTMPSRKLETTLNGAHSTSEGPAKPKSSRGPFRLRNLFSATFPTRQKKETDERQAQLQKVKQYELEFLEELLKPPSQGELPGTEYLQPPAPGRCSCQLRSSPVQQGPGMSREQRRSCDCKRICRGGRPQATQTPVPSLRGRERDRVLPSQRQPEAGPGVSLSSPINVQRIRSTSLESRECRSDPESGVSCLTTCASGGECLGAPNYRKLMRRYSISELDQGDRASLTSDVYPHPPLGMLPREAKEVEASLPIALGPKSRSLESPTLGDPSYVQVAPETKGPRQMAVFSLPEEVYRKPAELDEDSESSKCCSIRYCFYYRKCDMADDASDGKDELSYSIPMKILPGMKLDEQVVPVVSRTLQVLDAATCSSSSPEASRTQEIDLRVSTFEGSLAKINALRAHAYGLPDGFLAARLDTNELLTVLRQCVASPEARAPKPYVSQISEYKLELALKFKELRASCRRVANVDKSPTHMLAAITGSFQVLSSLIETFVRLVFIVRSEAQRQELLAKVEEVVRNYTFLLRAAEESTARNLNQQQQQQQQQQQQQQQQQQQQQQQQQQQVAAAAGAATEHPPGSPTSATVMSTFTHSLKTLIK
UniProt P09958, whole entry, looked up: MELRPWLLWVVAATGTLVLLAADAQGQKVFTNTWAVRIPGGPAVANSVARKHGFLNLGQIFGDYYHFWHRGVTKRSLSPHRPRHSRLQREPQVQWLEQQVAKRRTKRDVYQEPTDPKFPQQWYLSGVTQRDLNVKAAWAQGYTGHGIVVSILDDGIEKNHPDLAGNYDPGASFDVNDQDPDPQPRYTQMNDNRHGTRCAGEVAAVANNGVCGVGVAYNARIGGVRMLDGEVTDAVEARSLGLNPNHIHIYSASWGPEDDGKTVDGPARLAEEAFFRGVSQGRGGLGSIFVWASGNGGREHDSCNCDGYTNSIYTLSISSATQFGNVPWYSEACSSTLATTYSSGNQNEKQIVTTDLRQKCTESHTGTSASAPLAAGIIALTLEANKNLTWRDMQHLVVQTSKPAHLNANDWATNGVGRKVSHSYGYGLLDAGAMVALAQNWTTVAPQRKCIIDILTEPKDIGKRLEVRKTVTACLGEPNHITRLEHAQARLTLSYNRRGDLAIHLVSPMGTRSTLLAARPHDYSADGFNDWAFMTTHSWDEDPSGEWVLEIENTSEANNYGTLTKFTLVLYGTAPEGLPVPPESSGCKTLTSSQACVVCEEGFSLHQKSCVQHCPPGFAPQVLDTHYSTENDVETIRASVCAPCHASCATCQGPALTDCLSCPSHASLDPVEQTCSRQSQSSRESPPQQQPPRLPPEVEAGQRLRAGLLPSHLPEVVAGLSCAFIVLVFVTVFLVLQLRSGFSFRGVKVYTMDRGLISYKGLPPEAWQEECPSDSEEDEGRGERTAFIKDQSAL
UniProt Q86SF2: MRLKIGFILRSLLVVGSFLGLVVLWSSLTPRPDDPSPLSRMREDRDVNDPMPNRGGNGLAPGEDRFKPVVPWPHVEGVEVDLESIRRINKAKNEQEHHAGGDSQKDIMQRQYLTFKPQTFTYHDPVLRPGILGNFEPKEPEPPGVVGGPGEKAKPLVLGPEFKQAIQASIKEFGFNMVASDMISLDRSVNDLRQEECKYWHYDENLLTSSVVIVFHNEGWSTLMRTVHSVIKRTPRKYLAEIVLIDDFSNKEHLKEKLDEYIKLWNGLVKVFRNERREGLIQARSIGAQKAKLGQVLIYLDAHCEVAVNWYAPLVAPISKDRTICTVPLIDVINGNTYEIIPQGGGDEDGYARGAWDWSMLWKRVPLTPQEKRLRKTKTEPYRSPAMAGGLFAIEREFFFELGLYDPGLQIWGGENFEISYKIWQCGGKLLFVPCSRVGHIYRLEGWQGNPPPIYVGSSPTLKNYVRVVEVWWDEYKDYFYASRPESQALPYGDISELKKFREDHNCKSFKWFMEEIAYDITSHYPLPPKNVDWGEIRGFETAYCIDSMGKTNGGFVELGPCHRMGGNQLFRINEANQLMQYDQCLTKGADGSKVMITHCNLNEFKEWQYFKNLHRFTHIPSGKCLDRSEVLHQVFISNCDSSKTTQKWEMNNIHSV
UniProt Q9H3K2: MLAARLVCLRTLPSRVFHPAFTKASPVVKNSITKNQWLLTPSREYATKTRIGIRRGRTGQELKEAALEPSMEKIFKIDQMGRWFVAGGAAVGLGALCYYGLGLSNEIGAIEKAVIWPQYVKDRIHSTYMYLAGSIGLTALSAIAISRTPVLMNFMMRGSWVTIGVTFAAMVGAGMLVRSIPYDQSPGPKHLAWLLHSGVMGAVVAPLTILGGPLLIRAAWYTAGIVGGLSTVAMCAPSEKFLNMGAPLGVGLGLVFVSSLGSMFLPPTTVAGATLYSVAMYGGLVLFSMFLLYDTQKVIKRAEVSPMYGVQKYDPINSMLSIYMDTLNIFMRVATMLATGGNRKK

[2] = compound: CC1=C(SC2=C1C(=N[C@H](C3=NN=C(N32)C)CC(=O)N)C4=CC=C(C=C4)Cl)C
Outline: as §1

[3] = compound: CC1=C2C(=CC=C1)N=C(N(C2=O)C3=CC=CC=C3C)CN4C=NC5=C(N=CN=C54)N
Outline: as §1

[4] = compound: Cc1sc2c(c1C)C(c1ccc(Cl)cc1)=N[C@@H](CC(=O)OC(C)(C)C)c1nnc(C)n1-2
Outline: as §1

[5] = compound: c1ccc([C@@H]2C[C@H]2NC2CCNCC2)cc1
Outline: as §1

Measured: log2 fold change

FOXK1 (UniProt P85037)
inactive: [1] 0.104 | [2] -0.042 | [3] 0.253 | [4] -0.402 | [5] 0.049

GALM (UniProt Q96C23)
inactive: [1] 0.051 | [2] 0.076 | [3] 0.062 | [4] -0.026 | [5] -0.029

FRA10AC1 isoform 3 (UniProt Q70Z53)
inactive: [1] -0.03 | [2] 0.005 | [3] 0.055 | [4] 0.069 | [5] 0.073

GAPDH (UniProt P04406)
inactive: [1] 0.031 | [2] 0.02 | [3] -0.036 | [4] -0.009 | [5] -0.011

GALNT2 (UniProt Q10471)
inactive: [1] 0.008 | [2] 0.057 | [3] 0.001 | [4] 0.007 | [5] -0.004

GID4 (UniProt Q8IVV7)
inactive: [1] -0.012 | [2] -0.021 | [3] 0.138 | [4] 0.048 | [5] 0.009

FUT8 (UniProt Q9BYC5)
inactive: [1] 0 | [2] 0.068 | [3] -0.06 | [4] -0.168 | [5] 0.049

GAGE5 (UniProt Q13069)
inactive: [1] 0.029 | [2] 0.05 | [3] -0.022 | [4] -0.041 | [5] 0.008

GAGE2A (UniProt Q6NT46)
inactive: [1] -0.012 | [2] 0.052 | [3] 0.045 | [4] -0.031 | [5] -0.002

GAPVD1 isoform 6 (UniProt Q14C86)
inactive: [1] -0.09 | [2] 0.008 | [3] 0.097 | [4] 0.012 | [5] -0.018

GGCX (UniProt P38435)
inactive: [1] 0.107 | [2] -0.093 | [3] -0.004 | [4] -0.164 | [5] -0.018

GART (UniProt C9JZG2)
inactive: [1] -0.219 | [2] 0.03 | [3] 0.255 | [4] 0.127 | [5] 0.056

GGNBP2 (UniProt Q9H3C7)
inactive: [1] 0.082 | [2] 0 | [3] -0.08 | [4] 0.053 | [5] -0.218

GAMT (UniProt Q14353)
inactive: [1] -0.03 | [2] 0.065 | [3] 0.037 | [4] -0.127 | [5] -0.071

GALT (UniProt P07902)
inactive: [1] -0.056 | [2] 0.011 | [3] -0.001 | [4] -0.224 | [5] 0.161

FRG1 (UniProt Q14331)
inactive: [1] -0.007 | [2] -0.09 | [3] -0.074 | [4] 0.136 | [5] 0.018

GARS1 (UniProt P41250)
inactive: [1] 0.022 | [2] 0.019 | [3] -0.005 | [4] -0.008 | [5] 0.017

GCFC2 (UniProt P16383)
inactive: [1] -0.003 | [2] -0.077 | [3] 0 | [4] -0.027 | [5] 0.041

GFER (UniProt P55789)
inactive: [1] -0.062 | [2] 0.04 | [3] -0.005 | [4] -0.031 | [5] 0.025

GGA2 (UniProt Q9UJY4)
inactive: [1] -0.023 | [2] 0.014 | [3] -0.035 | [4] 0.041 | [5] -0.047

G6PD isoform 2 (UniProt P11413)
inactive: [1] -0.05 | [2] 0.045 | [3] 0.019 | [4] -0.024 | [5] -0.065

GCDH (UniProt Q92947)
inactive: [1] 0.021 | [2] 0.012 | [3] 0.036 | [4] -0.043 | [5] -0.019

FXN (UniProt Q16595)
inactive: [1] 0.004 | [2] 0.058 | [3] 0.134 | [4] -0.128 | [5] -0.022

Two neighbouring entries from above, for reference:
GART (UniProt C9JZG2)
inactive: [1] -0.219 | [2] 0.03 | [3] 0.255 | [4] 0.127 | [5] 0.056

GGNBP2 (UniProt Q9H3C7)
inactive: [1] 0.082 | [2] 0 | [3] -0.08 | [4] 0.053 | [5] -0.218

Continued:

FXR2 (UniProt P51116)
inactive: [1] 0.148 | [2] -0.168 | [3] -0.151 | [4] 0.231 | [5] 0.109

GCHFR (UniProt P30047)
inactive: [1] -0.033 | [2] 0.051 | [3] 0.146 | [4] -0.107 | [5] -0.007

FUT11 (UniProt Q495W5)
inactive: [1] -0.028 | [2] -0.041 | [3] 0.009 | [4] -0.036 | [5] -0.084

FPGT (UniProt O14772)
inactive: [1] -0.027 | [2] 0.042 | [3] -0.047 | [4] -0.058 | [5] 0.004

GGA1 isoform 6 (UniProt Q9UJY5)
inactive: [1] -0.004 | [2] 0.01 | [3] 0.046 | [4] 0.015 | [5] -0.068

FUBP1 isoform 2 (UniProt Q96AE4)
inactive: [1] 0.013 | [2] -0.023 | [3] 0.001 | [4] -0.001 | [5] 0.015

GGA3 (UniProt Q9NZ52)
inactive: [1] -0.072 | [2] 0.103 | [3] 0.025 | [4] -0.027 | [5] 0.014

GGH (UniProt Q92820)
inactive: [1] 0.028 | [2] -0.029 | [3] -0.056 | [4] -0.029 | [5] 0.054

GEMIN6 (UniProt Q8WXD5)
inactive: [1] 0.027 | [2] -0.111 | [3] -0.053 | [4] -0.113 | [5] -0.063

GBF1 (UniProt Q92538)
inactive: [1] -0.078 | [2] 0.036 | [3] 0.072 | [4] -0.005 | [5] 0.003

FOPNL (UniProt Q96NB1)
inactive: [1] 0.081 | [2] 0.105 | [3] 0.054 | [4] -0.02 | [5] 0.139

FRMPD3 (UniProt Q5JV73)
inactive: [1] 0.081 | [2] -0.04 | [3] 0.356 | [4] 0.078 | [5] 0.053

FURIN (UniProt P09958)
inactive: [1] 0.004 | [2] 0.123 | [3] -0.037 | [4] -0.036 | [5] -0.001

GBA (UniProt P04062)
inactive: [1] 0.014 | [2] -0.035 | [3] -0.007 | [4] -0.059 | [5] 0.004

GALNT7 (UniProt Q86SF2)
inactive: [1] 0.006 | [2] 0.052 | [3] 0.005 | [4] -0.01 | [5] -0.038

GABPA (UniProt Q06546)
inactive: [1] -0.001 | [2] 0.005 | [3] 0.149 | [4] -0.01 | [5] -0.041

GHITM (UniProt Q9H3K2)
inactive: [1] 0.021 | [2] 0.017 | [3] -0.013 | [4] -0.024 | [5] 0.016

GDI1 (UniProt P31150)
inactive: [1] -0.025 | [2] 0.054 | [3] 0.043 | [4] -0.022 | [5] -0.025

GCN1 (UniProt Q92616)
inactive: [1] 0.017 | [2] -0.282 | [3] -0.021 | [4] 0.219 | [5] -0.002

GABARAPL1 isoform 2 (UniProt Q9H0R8)
inactive: [1] 0.02 | [2] 0.094 | [3] 0.073 | [4] -0.022 | [5] -0.036

FOXRED1 (UniProt Q96CU9)
inactive: [1] -0.046 | [2] 0.062 | [3] 0.084 | [4] -0.013 | [5] -0.042

FYB1 isoform 3 (UniProt O15117)
inactive: [1] -0.09 | [3] 0.005 | [4] -0.017

GEMIN8 (UniProt Q9NWZ8)
inactive: [2] -0.294 | [3] 0.003 | [4] 0.124 | [5] 0.091

FZD1 (UniProt Q9UP38)
inactive: [1] 0.18 | [2] 0 | [3] 0.034 | [5] 0.168

GAK (UniProt O14976)
inactive: [2] 0.095 | [3] -0.032 | [4] 0.078 | [5] -0.209

GGT1 (UniProt P19440)
inactive: [1] -0.064 | [4] 0.161

GEMIN2 (UniProt O14893)
inactive: [1] 0.044 | [2] 0.013 | [3] -0.049 | [5] 0.025
